Test: Fluorescence titration with copper(II) ion (one-photon and two-photon)
Format: binding
Description: Referring to FIG. 3(b), when small increments of copper(II) ion were added to ACCu2 in EtOH/HEPES (9/1 viv, pH=7.0), the TPEF intensity at the channel 2 (Ired) decreased gradually without any appreciable change at the channel 1 (Iblue).
The dissociation constant (Kd) can be calculated using Equation (2): […]
wherein I is the fluorescence intensity, Ifinal is the fluorescence intensity for the CU^2+-ACCu2 complex and Iinitial is the fluorescence intensity for ACCu2.
The dissociation constants (Kd^OP and Kd^TP) of ACCu2 for the OP and TP processes can be calculated from the fluorescence titration curves shown in FIG. 3(b). […] These indicate 1:1 complexation between the probe and the cation.
Referring to FIG. 5(a), the fluorescence intensities of ACCu2 according to the present disclosure measured by the OP (one-photon) and TP (two-photon) processes decreased by 10-fold in the presence of 200 μM of copper(II) ion. […] This means that quantitative measurement of copper(II) ion is possible in this concentration range. Moreover, the Ired/Iblue ratios determined in the two-photon mode were well fitted by the titration curve obtained in the one-photon mode.

COCCOCCOCCOc1ccc2c(ccc3cc(C(=O)N4CCN(C(=O)c5ccc(CNC(=O)c6cc7cc8ccc(N(C)C)cc8cc7oc6=O)nc5)CC4)c(=O)oc32)c1 [ACCu2]
Job plot maximum, molar fraction (EtOH/HEPES (9:1, pH 7.0)): 0.20
slope of Hill plots for copper(II) ion (OP and TP processes, ACCu2 3 μM, Cu2+ 0-200 μM): 1.0

Reference: US9248202B2, “Two-photon probe for detecting copper(II) ion and quantitative estimation of copper(II) ion in human tissue using the same” (Korea University Research and Business Foundation, priority 2014, dated 2016)
